Laboratory results as given in PMC9295053.
Read-outs that look alike come from different tables or passages of the source. Results are given in words; binding and its absence hold for the method and conditions named. Binding seen in cells or lysates may run through a third protein. Some entries that bind do so weakly or less than the wild type.

Chains of the proteins cited; added tags and fusions are not shown. Lines headed by an entry give the natural chain unless they say otherwise; changes in a name come on top. A line that says so, or that is headed by a name, gives the form on record, which may keep a tag or linker.
V5-tagged GAC (glutaminase C), wild type (O94925, form named): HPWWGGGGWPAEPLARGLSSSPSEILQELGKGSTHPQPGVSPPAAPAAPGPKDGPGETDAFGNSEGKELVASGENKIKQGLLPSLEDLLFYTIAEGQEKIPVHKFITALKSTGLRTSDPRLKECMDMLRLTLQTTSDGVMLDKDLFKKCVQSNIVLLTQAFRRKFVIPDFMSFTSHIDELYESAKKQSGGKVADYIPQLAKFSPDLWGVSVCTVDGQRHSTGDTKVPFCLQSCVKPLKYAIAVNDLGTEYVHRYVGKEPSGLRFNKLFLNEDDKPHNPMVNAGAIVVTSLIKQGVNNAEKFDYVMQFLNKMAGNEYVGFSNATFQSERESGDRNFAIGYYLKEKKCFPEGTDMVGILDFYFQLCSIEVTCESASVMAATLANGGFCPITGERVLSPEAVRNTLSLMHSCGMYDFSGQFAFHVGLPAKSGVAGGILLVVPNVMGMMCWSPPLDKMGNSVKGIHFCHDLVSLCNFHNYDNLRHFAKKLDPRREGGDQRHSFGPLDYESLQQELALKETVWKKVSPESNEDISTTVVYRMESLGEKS
V5-tagged GAC K311Q (acetylation-mimetic mutant) (O94925, form named): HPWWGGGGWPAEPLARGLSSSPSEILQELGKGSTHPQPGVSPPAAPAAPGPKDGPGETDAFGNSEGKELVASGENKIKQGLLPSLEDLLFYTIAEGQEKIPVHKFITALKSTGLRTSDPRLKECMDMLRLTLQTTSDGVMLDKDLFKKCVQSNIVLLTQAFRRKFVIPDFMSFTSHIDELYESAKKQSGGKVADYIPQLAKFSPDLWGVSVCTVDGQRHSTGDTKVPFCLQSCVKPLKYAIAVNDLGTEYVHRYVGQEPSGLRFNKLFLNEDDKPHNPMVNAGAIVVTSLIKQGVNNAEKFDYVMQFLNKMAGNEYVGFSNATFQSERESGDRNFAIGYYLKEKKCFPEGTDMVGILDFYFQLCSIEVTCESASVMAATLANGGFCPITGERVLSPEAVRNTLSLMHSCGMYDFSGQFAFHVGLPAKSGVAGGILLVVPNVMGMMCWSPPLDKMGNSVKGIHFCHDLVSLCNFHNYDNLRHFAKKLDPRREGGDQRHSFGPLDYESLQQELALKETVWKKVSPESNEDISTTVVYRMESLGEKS
UniProt Q9UBN7: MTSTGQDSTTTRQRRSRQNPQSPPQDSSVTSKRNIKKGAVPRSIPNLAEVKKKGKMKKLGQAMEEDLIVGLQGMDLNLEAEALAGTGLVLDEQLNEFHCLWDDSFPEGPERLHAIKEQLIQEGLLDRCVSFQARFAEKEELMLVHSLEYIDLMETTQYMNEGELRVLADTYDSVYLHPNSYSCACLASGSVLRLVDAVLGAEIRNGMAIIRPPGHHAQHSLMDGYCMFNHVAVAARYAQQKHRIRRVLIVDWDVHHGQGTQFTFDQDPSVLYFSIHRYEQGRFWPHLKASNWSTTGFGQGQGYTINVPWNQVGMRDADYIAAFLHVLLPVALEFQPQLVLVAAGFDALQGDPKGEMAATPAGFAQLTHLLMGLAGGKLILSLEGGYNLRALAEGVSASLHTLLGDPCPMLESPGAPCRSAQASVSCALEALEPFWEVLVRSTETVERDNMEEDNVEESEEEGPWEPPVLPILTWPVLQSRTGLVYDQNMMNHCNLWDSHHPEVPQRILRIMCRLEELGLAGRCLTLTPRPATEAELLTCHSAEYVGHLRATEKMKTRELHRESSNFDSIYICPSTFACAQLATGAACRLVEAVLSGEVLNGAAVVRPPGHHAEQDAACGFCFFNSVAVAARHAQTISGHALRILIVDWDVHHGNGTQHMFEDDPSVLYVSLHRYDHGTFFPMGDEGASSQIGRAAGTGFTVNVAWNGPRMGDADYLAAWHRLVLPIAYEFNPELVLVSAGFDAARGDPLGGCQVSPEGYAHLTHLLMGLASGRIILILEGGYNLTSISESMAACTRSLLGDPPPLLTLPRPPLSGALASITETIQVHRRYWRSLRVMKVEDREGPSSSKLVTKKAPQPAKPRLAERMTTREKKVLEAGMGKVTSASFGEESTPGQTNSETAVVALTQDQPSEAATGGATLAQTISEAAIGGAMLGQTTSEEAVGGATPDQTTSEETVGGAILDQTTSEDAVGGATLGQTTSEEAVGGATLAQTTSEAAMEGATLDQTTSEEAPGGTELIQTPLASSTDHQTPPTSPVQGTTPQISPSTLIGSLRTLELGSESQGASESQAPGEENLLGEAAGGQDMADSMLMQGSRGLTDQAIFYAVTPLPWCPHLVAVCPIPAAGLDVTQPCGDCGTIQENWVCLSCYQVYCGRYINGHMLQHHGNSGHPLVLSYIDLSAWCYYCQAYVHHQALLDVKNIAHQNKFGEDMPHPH
UniProt P19474: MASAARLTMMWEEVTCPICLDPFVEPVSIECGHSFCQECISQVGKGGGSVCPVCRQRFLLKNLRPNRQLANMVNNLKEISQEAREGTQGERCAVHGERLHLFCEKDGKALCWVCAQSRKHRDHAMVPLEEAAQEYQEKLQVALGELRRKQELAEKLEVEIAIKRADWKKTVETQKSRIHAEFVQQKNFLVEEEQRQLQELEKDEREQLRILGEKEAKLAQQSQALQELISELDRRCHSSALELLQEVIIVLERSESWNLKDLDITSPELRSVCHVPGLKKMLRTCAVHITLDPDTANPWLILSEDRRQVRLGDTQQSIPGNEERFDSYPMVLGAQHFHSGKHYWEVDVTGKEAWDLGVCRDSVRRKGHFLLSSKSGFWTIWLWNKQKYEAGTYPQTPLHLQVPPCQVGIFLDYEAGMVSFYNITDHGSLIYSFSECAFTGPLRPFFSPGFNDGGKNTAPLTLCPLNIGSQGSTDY

B1: HDAC7 (enzyme, UniProt Q8WUI4 1-952)
chain: MDLRVGQRPPVEPPPEPTLLALQRPQRLHHHLFLAGLQQQRSVEPMRLSMDTPMPELQVGPQEQELRQLLHKDKSKRSAVASSVVKQKLAEVILKKQQAALERTVHPNSPGIPYRTLEPLETEGATRSMLSSFLPPVPSLPSDPPEHFPLRKTVSEPNLKLRYKPKKSLERRKNPLLRKESAPPSLRRRPAETLGDSSPSSSSTPASGCSSPNDSEHGPNPILGSEALLGQRLRLQETSVAPFALPTVSLLPAITLGLPAPARADSDRRTHPTLGPRGPILGSPHTPLFLPHGLEPEAGGTLPSRLQPILLLDPSGSHAPLLTVPGLGPLPFHFAQSLMTTERLSGSGLHWPLSRTRSEPLPPSATAPPPPGPMQPRLEQLKTHVQVIKRSAKPSEKPRLRQIPSAEDLETDGGGPGQVVDDGLEHRELGHGQPEARGPAPLQQHPQVLLWEQQRLAGRLPRGSTGDTVLLPLAQGGHRPLSRAQSSPAAPASLSAPEPASQARVLSSSETPARTLPFTTGLIYDSVMLKHQCSCGDNSRHPEHAGRIQSIWSRLQERGLRSQCECLRGRKASLEELQSVHSERHVLLYGTNPLSRLKLDNGKLAGLLAQRMFVMLPCGGVGVDTDTIWNELHSSNAARWAAGSVTDLAFKVASRELKNGFAVVRPPGHHADHSTAMGFCFFNSVAIACRQLQQQSKASKILIVDWDVHHGNGTQQTFYQDPSVLYISLHRHDDGNFFPGSGAVDEVGAGSGEGFNVNVAWAGGLDPPMGDPEYLAAFRIVVMPIAREFSPDLVLVSAGFDAAEGHPAPLGGYHVSAKCFGYMTQQLMNLAGGAVVLALEGGHDLTAICDASEACVAALLGNRVDPLSEEGWKQKPNLNAIRSLEAVIRVHSKYWGCMQRLASCPDSWVPRVPGADKEEVEAVTALASLSVGILAEDRPSEQLVEEEEPMNL
B2: HDAC10 (enzyme, UniProt Q969S8 1-669)
chain: MGTALVYHEDMTATRLLWDDPECEIERPERLTAALDRLRQRGLEQRCLRLSAREASEEELGLVHSPEYVSLVRETQVLGKEELQALSGQFDAIYFHPSTFHCARLAAGAGLQLVDAVLTGAVQNGLALVRPPGHHGQRAAANGFCVFNNVAIAAAHAKQKHGLHRILVVDWDVHHGQGIQYLFEDDPSVLYFSWHRYEHGRFWPFLRESDADAVGRGQGLGFTVNLPWNQVGMGNADYVAAFLHLLLPLAFEFDPELVLVSAGFDSAIGDPEGQMQATPECFAHLTQLLQVLAGGRVCAVLEGGYHLESLAESVCMTVQTLLGDPAPPLSGPMAPCQSALESIQSARAAQAPHWKSLQQQDVTAVPMSPSSHSPEGRPPPLLPGGPVCKAAASAPSSLLDQPCLCPAPSVRTAVALTTPDITLVLPPDVIQQEASALREETEAWARPHESLAREEALTALGKLLYLLDGMLDGQVNSGIAATPASAAAATLDVAVRRGLSHGAQRLLCVALGQLDRPPDLAHDGRSLWLNIRGKEAAALSMFHVSTPLPVMTGGFLSCILGLVLPLAYGFQPDLVLVALGPGHGLQGPHAALLAAMLRGLAGGRVLALLEENSTPQLAGILARVLNGEAPPSLGPSSVASPEDVQALMYLRGQLEPQWKMLQCHPHLVA

Legend:
Assay in all cases: co-IP; transfected NSCLC cells (H1299, A549) lysed in NP40 lysis buffer; protein G agarose beads and indicated antibodies, 4 °C, 8 h; western blot; in some panels cells treated with NAM and TSA or co-transfected with HDAC4
[1] = molecular target: V5-tagged GAC (glutaminase C), wild type (human) (UniProt O94925)
[2] = molecular target: V5-tagged GAC K311Q (acetylation-mimetic mutant) (human) (UniProt O94925)
[3] = molecular target: V5-tagged GAC (glutaminase C), wild type (human) (UniProt O94925); remark: listed apart in the source

Molecule	binding [1]	binding [2]	binding [3]
HDAC6 (from UniProt Q9UBN7 1-1215) (enzyme)	no binding	–	–
TRIM21 (Tripartite motif containing-21) (from UniProt P19474 1-475) (enzyme)	binds	binds	–
B1	–	–	no binding
B2	–	–	no binding
